Measurements reported in PubChem BioAssay AID602203 (INSERM, 2012)

- Purpose: 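Genes whose knock-down alters cisplatin killing of lung cancer cells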 (follow-up of hits)
- System: human A549 lung cancer cells
- Knock-down reagent: siRNA pair against human genes
- Treatment: cisplatin at a dose killing half of control-siRNA cells, given 48 h after transfection
- Read-out: 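Two siRNAs per gene scored +1 protective, -1 sensitizing, 0 if toxic by LDH or growth-reducing by WST-1; cisplatin given 48 h later at 50% control kill; scores summed, mean death shift versus control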
- Direction: summed siRNA score for cisplatin death: higher = more siRNAs reduced cisplatin-induced cell death
- Active means: In these data the active calls have summed siRNA score for cisplatin death at about -3 or lower, or at about 3 or higher
Shown is an unselected part of 999 reagents. 85 of all reagents (8.5%) were called active. 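Unclear how single-siRNA scores of -1, 0 or +1 give the printed -4 to 4 range; calls lie near -3 or 3 and beyond.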 Further read-outs or replicates are left out here. Reagent sequences are not shown. Not stated in the record: the amount of reagent, the time to read-out, the dose of the treatment.

Target gene	summed siRNA score for cisplatin death	Outcome
LOC390342	2	inactive
MSRB2	-1	inactive
SULF1	-2	inactive
HLA-E	0	inactive
DLEU2	0	inactive
TMEM234	-3	active
AMPD1	2	inactive
PLOD3	-1	inactive
LOC401191	1	inactive
LOC440329	2	inactive
ASB15	0	inactive
ZNF786	-1	inactive
MCRIP1	2	inactive
GRIA3	-2	inactive
BSN	-3	active
FOXF2	-1	inactive
ZFP37	-1	inactive
REEP4	0	inactive
PIK3C2B	-1	inactive
P4HA2	-2	inactive
TRHDE	0	inactive
PIP5K1B	-2	inactive
PMM2	-1	inactive
STX12	2	inactive
LOC440986	0	inactive
GOLGA2	-2	inactive
GLIPR1L1	2	inactive
PRSS55	0	inactive
COQ6	0	inactive
LOC203510	-1	inactive
NUP35	-1	inactive
CBR4	2	inactive
LOC442606	-1	inactive
LOC390729	0	inactive
POLG2	1	inactive
SWI5	1	inactive
OSBPL5	2	inactive
CD244	1	inactive
SLC11A2	1	inactive
ALPK3	0	inactive
ETF1	1	inactive
FBXO6	-1	inactive
KLF13	0	inactive
LOC390386	1	inactive
CCDC197	-2	inactive
LOC388284	0	inactive
CYP39A1	1	inactive
COX6B1	0	inactive
P4HA3	-1	inactive
LOC388743	2	inactive
HP	-1	inactive
LOC442219	-2	inactive

Reformatted: results already given
| Target gene | summed siRNA score for cisplatin death | Outcome |
| --- | --- | --- |
| PIK3C2B | -1 | inactive |
| P4HA2 | -2 | inactive |
| TRHDE | 0 | inactive |
| PIP5K1B | -2 | inactive |
| PMM2 | -1 | inactive |
| STX12 | 2 | inactive |
| LOC440986 | 0 | inactive |
| GOLGA2 | -2 | inactive |

The listing continues:
Target gene	summed siRNA score for cisplatin death	Outcome
GPR4	0	inactive
MX1	-1	inactive
PHF1	-1	inactive
LINC02875	1	inactive
LOC388954	-2	inactive
LOC388406	1	inactive
LARGE1	0	inactive
FLJ41327 (retired record)	1	inactive
TP53TG3	1	inactive
MXD1	-1	inactive
FLJ25339	-2	inactive
TBC1D23	-2	inactive
SERPINF1	1	inactive
LOC390801	-1	inactive
ERFL	-2	inactive
FBXO42	3	active
DYNLT3	0	inactive
PLEK	-1	inactive
THYN1	1	inactive
ATPSCKMT	0	inactive
LPL	0	inactive
LOC441900	-1	inactive
PUM1	1	inactive
AIF1	-2	inactive
PEX39	1	inactive
SIRT4	1	inactive
NUCB2	0	inactive
OR10R2	2	inactive
PRR23E	0	inactive
LOC401357	0	inactive
HEMK1	-1	inactive
LOC440101	0	inactive
ITIH6	0	inactive
SPI1	-1	inactive
PLCXD3	1	inactive
RUVBL1	-2	inactive
TMEM131	1	inactive
LOC401860	0	inactive
ATL1	-1	inactive
POLR3G	0	inactive
MYF6	-1	inactive
AMZ2	-2	inactive
C3orf62	0	inactive
ROBO3	1	inactive
LOC283412	1	inactive
SPSB3	1	inactive
AGPAT2	-1	inactive
LOC441756	2	inactive
LOC390533	-3	active
KIAA0753	1	inactive
MKNK1	0	inactive
UBE2L3	-3	active
DCLK2	1	inactive
EPHB4	-2	inactive
LOC440665	0	inactive
SIX2	0	inactive
GP1BB	1	inactive
LOC442669	0	inactive
DUX4L8	0	inactive
RAB11FIP2	-1	inactive
CCL3L1	2	inactive
DPP10-AS1	1	inactive
LOC440611	3	active
AHCYL1	0	inactive
NDUFA8	-1	inactive
KTN1	-1	inactive
FKBP4P2	-3	active
PIP5KL1	1	inactive
CYP11B2	-3	active
IGF2R	-1	inactive
PLEKHF1	-1	inactive
LOC441115	3	active
MYCLP1	-2	inactive
IMPACT	-2	inactive
ATP8B2	1	inactive
LOC440155	1	inactive
CEACAM4	2	inactive
SNX13	-1	inactive
PCCA	-2	inactive
FOXD4	0	inactive
CCDC144NL	-1	inactive
PPARD	0	inactive
MMP2	0	inactive
PRMT8	0	inactive
